Measured values taken from the supplement of paper PMC9233669.
Variants at the background level are over-represented here.

Key:
biotinyl-Trp-oxazolone = test: self-aminoacylation, catalytic enhancement (BWO) (fold over background); higher = more active; k-Seq, kA / k0A0; sequences stand for … in GGGAAUGGAUCCACAUCUACGAAUUC…UUCACUGCAGACUUGACGAAGCUG
Procedure, shortened: (§1)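 Catalytic enhancement equals the median kA over the uncatalyzed rate, the latter read from the low-activity peak of a bimodal Gaussian fit. Values of kA came from fitting each sequence's fraction reacted to a pseudo-first-order model, with 1000 bootstraps. Reacted RNA was captured with streptavidin and quantified by triplicate qPCR and Illumina sequencing after 90 minutes at room temperature with 2–1250 μM biotinyl-aminoacyl-oxazolone and 0.43 μM mutagenized RNA pools bearing a 21-nt variable region.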

biotinyl-Leu-oxazolone = test: self-aminoacylation, catalytic enhancement (BLO) (fold over background); higher = more active; k-Seq, kA / k0A0; sequences stand for … in GGGAAUGGAUCCACAUCUACGAAUUC…UUCACUGCAGACUUGACGAAGCUG
Procedure, shortened: as §1

biotinyl-Val-oxazolone = test: self-aminoacylation, catalytic enhancement (BVO) (fold over background); higher = more active; k-Seq, kA / k0A0; sequences stand for … in GGGAAUGGAUCCACAUCUACGAAUUC…UUCACUGCAGACUUGACGAAGCUG
Procedure, shortened: as §1

biotinyl-Ile-oxazolone = test: self-aminoacylation, catalytic enhancement (BIO) (fold over background); higher = more active; k-Seq, kA / k0A0; sequences stand for … in GGGAAUGGAUCCACAUCUACGAAUUC…UUCACUGCAGACUUGACGAAGCUG
Procedure, shortened: as §1

biotinyl-Met-oxazolone = test: self-aminoacylation, catalytic enhancement (BMO) (fold over background); higher = more active; k-Seq, kA / k0A0; sequences stand for … in GGGAAUGGAUCCACAUCUACGAAUUC…UUCACUGCAGACUUGACGAAGCUG
Procedure, shortened: as §1

biotinyl-Phe-oxazolone = test: self-aminoacylation, catalytic enhancement (BFO) (fold over background); higher = more active; k-Seq, kA / k0A0; sequences stand for … in GGGAAUGGAUCCACAUCUACGAAUUC…UUCACUGCAGACUUGACGAAGCUG
Procedure, shortened: as §1

Sequence | self-aminoacylation (biotinyl-Trp-oxazolone) | self-aminoacylation (biotinyl-Leu-oxazolone) | self-aminoacylation (biotinyl-Val-oxazolone) | self-aminoacylation (biotinyl-Ile-oxazolone) | self-aminoacylation (biotinyl-Met-oxazolone) | self-aminoacylation (biotinyl-Phe-oxazolone)
AUUCACUUAGGUCAUCGGGAG [Fam2.2 aminoacylation ribozyme variant] | 0.745 | 1.22 | 1.11 | 1.02 | 1.1 | 0.746
AUUCACUUAGUUCAUCGGGUG [Fam2.2 aminoacylation ribozyme variant] | 3.28 | 2.93 | 1.88 | 2.18 | 2.58 | 11.1
AUUCAUCUUGGUCAUCGGGUG [Fam2.2 aminoacylation ribozyme variant] | 7.39 | 9.58 | 4.56 | 4.97 | 7.46 | 50.1
AUUCCCCUAGGACAUCGGGUG [Fam2.2 aminoacylation ribozyme variant] | 8.25 | 9.47 | 6.82 | 6.12 | 7.14 | 44.8
AUUCCCCUAGGUUAUCGGGUG [Fam2.2 aminoacylation ribozyme variant] | 20 | 27.6 | 13.3 | 12.9 | 20 | 187
AUUCCCCUGGUCAUCAAGUGA [Fam2.1 aminoacylation ribozyme variant] | 2.34 | 1.97 | 1.99 | 1.58 | 2.36 | 3.87
AUUCCCCUGGUCAUCGCGUGA [Fam2.1 aminoacylation ribozyme variant] | 26.8 | 28.2 | 15 | 12.2 | 22.1 | 213
AUUCUACUAGGUCAUCGGGUG [Fam2.2 aminoacylation ribozyme variant] | 5.93 | 7.31 | 3.87 | 3.7 | 5.82 | 41.7
AUUGACCUAGGUCAUCGGAUG [Fam2.2 aminoacylation ribozyme variant] | 1.58 | 1.24 | 1.31 | 1.47 | 1.39 | 1.3
AUUUACCUAGGUCAUCGGGAG [Fam2.2 aminoacylation ribozyme variant] | 0.947 | 1.39 | 1.29 | 1.15 | 1.11 | 0.695
AUUUACCUAGGUCAUCGGGUA [Fam2.2 aminoacylation ribozyme variant] | 22.2 | 39.9 | 12.3 | 14.1 | 29.5 | 218
AUUUCCCUGCUCAUCGAGUGA [Fam2.1 aminoacylation ribozyme variant] | 1.15 | 1.6 | 1.46 | 1.47 | 1.74 | 1.67
AUUUCCCUGGUCAUAGAGUGA [Fam2.1 aminoacylation ribozyme variant] | 12.2 | 9.78 | 4.88 | 4.67 | 9.7 | 61.5
AUUUCCCUGGUCAUCGAGUUA [Fam2.1 aminoacylation ribozyme variant] | 1.47 | 1.87 | 1.53 | 1.49 | 1.63 | 2.12
CAACACUUCUAGCAAUCGGUC [Fam1B.1 aminoacylation ribozyme variant] | 0.715 | 0.739 | 0.825 | 0.886 | 0.724 | 0.788
CAACGCUUCAAGCAAUCGGUC [Fam1B.1 aminoacylation ribozyme variant] | 33.7 | 2.08 | 1.4 | 1.26 | 1.72 | 58.6
CAACUUCAAACAAUGGGUCUG [Fam1A.1 aminoacylation ribozyme variant] | 0.937 | 1.06 | 0.929 | 1.21 | 0.966 | 2.23
CAAGACUUCAAGCAAUCGGUC [Fam1B.1 aminoacylation ribozyme variant] | 9.73 | 1.54 | 1.12 | 1.11 | 1.25 | 15.3
CAGGUUGCUAAUAGUCGCAAG [Fam3.1 aminoacylation ribozyme variant] | 0.731 | 0.879 | 1.01 | 1.11 | 0.75 | 0.778
CAGUUUGCUAAUAGUCGCAAU [Fam3.1 aminoacylation ribozyme variant] | 1.47 | 1.71 | 1.67 | 2.06 | 1.38 | 2
CAGUUUGCUACUAGUCGCAAG [Fam3.1 aminoacylation ribozyme variant] | 1.02 | 1.26 | 1.2 | 1.37 | 1.19 | 1.71
CCAAACUACAAGCAAUCGGUC [Fam1B.1 aminoacylation ribozyme variant] | 0.732 | 0.903 | 1.12 | 0.906 | 0.745 | 1.02
CCAAACUUCAAGCGAUCGGUC [Fam1B.1 aminoacylation ribozyme variant] | 1.25 | 1.32 | 1.35 | 1.1 | 1.11 | 1.09
CCAAACUUCAAGUAAUCGGUC [Fam1B.1 aminoacylation ribozyme variant] | 7.85 | 1.14 | 0.974 | 0.968 | 0.787 | 10.5
CCAAACUUCACGCAAUCGGUC [Fam1B.1 aminoacylation ribozyme variant] | 1.08 | 1.49 | 1.74 | 1.41 | 1.39 | 0.813
